{"source": "paper PMC4714197", "about": "“The Tomato Nucleotide-binding Leucine-rich Repeat Immune Receptor I-2 Couples DNA-binding to Nucleotide-binding Domain Nucleotide Exchange” (The Journal of Biological Chemistry, 2015)", "key": {"[1]": {"target": "T1, I-2 CC-NB-ARC WT (I-2 1-519) (Solanum lycopersicum (tomato)) (UniProt Q9XET3)", "T1 sequence (looked up)": "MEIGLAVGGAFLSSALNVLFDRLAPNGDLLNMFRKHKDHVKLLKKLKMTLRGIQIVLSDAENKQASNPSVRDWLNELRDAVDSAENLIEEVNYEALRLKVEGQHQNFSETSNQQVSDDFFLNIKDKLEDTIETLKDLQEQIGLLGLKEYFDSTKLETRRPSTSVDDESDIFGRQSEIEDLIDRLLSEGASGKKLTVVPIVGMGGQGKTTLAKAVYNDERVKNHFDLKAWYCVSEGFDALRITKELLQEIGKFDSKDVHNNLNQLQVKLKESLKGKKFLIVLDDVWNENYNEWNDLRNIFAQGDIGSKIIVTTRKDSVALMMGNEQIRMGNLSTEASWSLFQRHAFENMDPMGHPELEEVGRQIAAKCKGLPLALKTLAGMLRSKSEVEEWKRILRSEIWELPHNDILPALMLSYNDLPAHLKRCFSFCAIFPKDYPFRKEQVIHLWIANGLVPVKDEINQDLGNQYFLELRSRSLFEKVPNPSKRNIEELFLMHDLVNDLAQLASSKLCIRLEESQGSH", "assay": "steady-state and time-resolved FRET", "conditions": "1.5 uM protein, DNA bending; recombinant protein; residues 1-519; label: fluorescein and TAMRA end labels"}, "[2]": {"target": "T1, I-2 CC-NB-ARC WT (I-2 1-519) (Solanum lycopersicum (tomato))", "assay": "EMSA", "conditions": "EMSA: 20 mM Tris-HCl pH 8.0, 60 mM NaCl, 2 mM EDTA, 1 mM DTT, 10% glycerol, 0.1 mg/ml BSA, 0.15 nM nucleic acid, recombinant protein, residues 1-519, label: 32P end label"}, "[3]": {"target": "T2, I-2 CC-NB-ARC S233F (Solanum lycopersicum (tomato)) (UniProt Q9XET3)", "T2 sequence (looked up)": "T1 sequence (looked up) with S233F", "assay": "EMSA", "conditions": "5 uM ADP, 10 mM ZnCl2 (so in the source); EMSA: 20 mM Tris-HCl pH 8.0, 60 mM NaCl, 2 mM EDTA, 1 mM DTT, 10% glycerol, 0.1 mg/ml BSA, 0.15 nM nucleic acid; recombinant protein; residues 1-519; label: 32P end label"}, "[4]": {"target": "T3, I-2 CC-NB-ARC K207R (Solanum lycopersicum (tomato)) (UniProt Q9XET3)", "T3 sequence (looked up)": "T1 sequence (looked up) with K207R", "assay": "EMSA", "conditions": "10 mM ZnCl2 (so in the source), same effect as WT, EMSA: 20 mM Tris-HCl pH 8.0, 60 mM NaCl, 2 mM EDTA, 1 mM DTT, 10% glycerol, 0.1 mg/ml BSA, 0.15 nM nucleic acid, recombinant protein, residues 1-519, label: 32P end label"}}, "note": "Where a chain is given by its changes, count along the chain named. Protein sequences can lack the tags named with them. The exact form of at least one protein or probe is not confirmed. For part of these data: Weaker means in comparison with the reference protein, sequence or condition of that experiment. For part of these data: At least one verdict rests on a figure or table, not on a statement of the authors. For part of these data: Whether high values mean tight binding is not given here for every scale."}
{"sequence": "TGGGTCAACGTGGGCAAAGA (double strand) [SS1s/SS2s dsDNA (20 bp), FRET]", "values": [{"measurement": "binding result", "setting": "[1]", "value": "binds"}]}
{"sequence": "TGGGTCAACGTGGGCAAAGATGTCCTAGCAATGTAATCGTCTATGACGTT (double strand) [SS1/SS2 dsDNA (50 bp)]", "values": [{"measurement": "binding signal (ratio to no nucleotide)", "setting": "[2]; 5 uM ADP, 10 mM ZnCl2 (so in the source)", "value": 0.65}, {"measurement": "binding signal (% of binding with 5 uM ATP)", "setting": "[3]", "value": 61}, {"measurement": "binding result", "setting": "[4]; 5 uM ADP", "value": "binds more weakly"}, {"measurement": "binding result", "setting": "[4]; 5 uM beta,gamma-imido ATP", "value": "binds"}]}
{"sequence": "UGGGUCAACGUGGGCAAAGAUGUCCUAGCAAUGUAAUCGUCUAUGACGUU [ssRNA sense strand (50 nt)]", "values": [{"measurement": "Kd", "setting": "[2]; apparent Kd, text says reduced affinity", "value": "> 100", "unit": "µM"}]}
